Measurements reported in PubChem BioAssay AID1053208 (Peter MacCallum Cancer Centre, 2014).
Aim: 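Synthetic lethal interactions between gene loss and doxorubicin in osteosarcoma cells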 (primary screen). System: mouse osteosarcoma cells, early-passage culture from an engineered mouse model of fibroblastic bone tumour. Reagent: siRNA pool against mouse genes, 40 nM. Timing: about 120 h (48 h before drug, then 72 h with drug). Treatment: doxorubicin 100 nM for 72 h, roughly 30-40% inhibitory dose. Measurement: 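Luminescent ATP signal taken as viability with or without 100 nM doxorubicin for 72 h; mean of two wells set against non-targeting siRNA and turned into robust z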. Direction: viability z-score with doxorubicin: higher = more viable cells under doxorubicin; viability z-score without drug: higher = more viable cells with knock-down alone. Rule for the call: 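Called active if knock-down leaves viability unchanged without drug (z within -2 to 2) but lowers it with doxorubicin (z at or under -2)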.
This is one part, drawn at random, of about 17,000 reagents tested. 788 of them (4.7%) were called active. 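Calls rest on z-score classes alone; an extra cut-off of viability at most 70% of control was not applied to them.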 Not all columns of the deposit are shown.

no.	gene symbol	combined z-score class	viability z-score with doxorubicin	viability z-score without drug	outcome
1	Ly6m	no change with or without drug	-1.12	0.51	inactive
2	Or2z8	no change with or without drug	-0.45	0.84	inactive
3	Pramel48	no change with or without drug	-0.67	0.84	inactive
4	Mrpl24	low cell count with and without drug	-2.14	-2.19	inactive
5	Prl2c3	no change with or without drug	0.45	-0.51	inactive
6	Fign	no change with or without drug	0.45	1.85	inactive
7	Dera	no change with or without drug	1.12	1.01	inactive
8	Tcf23	no change with or without drug	0.9	-0.51	inactive
9	Ndn	no change with or without drug	1.01	-0.51	inactive
10	Hsd17b6	no change with or without drug	-0.22	0.51	inactive
11	Ahsa1	no change with or without drug	-0.9	-0.51	inactive
12	Sall1	no change with or without drug	-0.34	1.18	inactive
13	Dynlt4	no change with or without drug	-0.45	-0.84	inactive
14	Resp18	no change with or without drug	0.22	-0.51	inactive
15	Bmf	no change with or without drug	-1.46	-0.84	inactive
16	Or5ak25	no change with or without drug	-0.45	1.01	inactive
17	Zfp62	no change with or without drug	0.79	1.85	inactive
18	Bgn	no change with or without drug	1.69	0.67	inactive
19	Usp21	no change with or without drug	0.11	0.51	inactive
20	B3gnt8	no change with or without drug	-1.46	-0.51	inactive
21	Or2aa1	no change with or without drug	0	-0.51	inactive
22	Fmo2	no change with or without drug	0.22	0.17	inactive
23	Slc25a21	no change with or without drug	0.45	0.84	inactive
24	Phf1	no change with or without drug	-0.67	0.34	inactive
25	C3	no change with or without drug	-0.67	-0.17	inactive
26	Ndst4	no change with or without drug	0.45	-0.84	inactive
27	Rab5a	no change with or without drug	1.01	-0.51	inactive
28	Arl8a	no change with or without drug	-1.12	-0.51	inactive
29	Or5b124	no change with or without drug	0.67	-1.18	inactive
30	Tnfsf13b	no change with or without drug	-0.34	-0.17	inactive
31	Spats2l	no change with or without drug	-0.45	-0.84	inactive
32	Vmn1r50	no change with or without drug	0.45	-1.69	inactive
33	Ccr1l1	no change with or without drug	-0.9	1.18	inactive
34	Map1lc3a	no change with or without drug	0.22	-1.18	inactive

Reformatted: entries from further up.
{"gene symbol":"Tnfsf13b","combined z-score class":"no change with or without drug","viability z-score with doxorubicin":-0.34,"viability z-score without drug":-0.17,"outcome":"inactive"}
{"gene symbol":"Spats2l","combined z-score class":"no change with or without drug","viability z-score with doxorubicin":-0.45,"viability z-score without drug":-0.84,"outcome":"inactive"}
{"gene symbol":"Vmn1r50","combined z-score class":"no change with or without drug","viability z-score with doxorubicin":0.45,"viability z-score without drug":-1.69,"outcome":"inactive"}
